The subject of series [1] is SpeI restriction endonuclease (native, ~20 kDa) (Sphaerotilus species ATCC 13923). Nature of the series: enzyme reaction in vitro. Particulars: plasmids with inserted linker identified by SpeI digestion; SpeI preparation source not stated; purified native protein.
Series [2] has as its system SpeI modification methylase (Sphaerotilus species ATCC 13923). The series is described as follows: activity in cells. The conditions noted are these: methylase selection; pSpeIM1 clone in pSspIHincII/SpeI vector fully protected from SpeI digestion; protein in cells; protein details: expressed from pSYX20SpeIM9 in E. coli ER2427; only the site is given.

Construct, isoform or probe ends are uncertain for at least one entry.

As for “CCAACTAGTTGG (double strand) [SpeI linker (inserted in pUC19, pSspIHincII/SpeI)]”, the “activity on this sequence” value in series [1] and in series [2] was “active” each time.

Source of the values: patent US5945326.
